Test results published in PubChem BioAssay AID1794845 (National Center for Advancing Translational Sciences (NCATS), 2023).
Fewer than 10 of roughly 6,900 compounds were called active. The call rests on the fitted dose curve; in most records, active means well fitted curve in the direction sought with a large enough effect; inconclusive means small, poorly fitted or top-dose-only effect, or another doubt; inactive means no such curve, though single readings can be large or run the other way. The list shows a part of the results.
Further: % of control where 0% means no effect.

Chains of the proteins cited; added tags and fusions are not shown. Lines headed by an entry give the natural chain unless they say otherwise; changes in a name come on top.
UniProt C7C422: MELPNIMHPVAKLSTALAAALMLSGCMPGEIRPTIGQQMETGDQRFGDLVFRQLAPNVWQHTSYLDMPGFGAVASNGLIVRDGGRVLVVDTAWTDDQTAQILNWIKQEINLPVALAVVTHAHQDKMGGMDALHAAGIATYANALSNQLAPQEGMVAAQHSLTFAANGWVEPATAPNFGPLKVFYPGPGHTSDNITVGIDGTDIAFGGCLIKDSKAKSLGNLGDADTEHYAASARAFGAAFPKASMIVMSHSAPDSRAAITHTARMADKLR

These compounds were tested against Metallo-beta-lactamase type 2 (Klebsiella pneumoniae) (UniProt C7C422) (assay: qHTS to identify inhibitors of the New Delhi Metallo-beta-lactamase (NDM): primary screen against the NCATS Gemini Collection). Details: NDM-1 enzyme, meropenem hydrolysis, absorbance 300 nm; at 38.4 µM (top of the series) unless noted.
How it was run: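 Meropenem hydrolysis (50 uM final) by 2 nM NDM-1 read as 300 nm absorbance after 30 min, following >30 min compound–enzyme preincubation in HEPES pH 7.0 with 1 uM ZnSO4 and 0.01% Tween20.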
In the case of COCc1ccc(C(=O)N2CCCC(CCc3cccc(OC)c3)C2)o1 (centres undefined), the activity % (negative = inhibition) is reported as inactive: 2%.
For COCC1(C(=O)N2CCN(C)C3(CCNC(=O)CC3)C2)CCC1 (centres undefined), the activity % (negative = inhibition) was inactive: -0.987%.
In the case of O=C(NCCCc1ccccc1)c1nc2sccn2c1-c1cccc(C(F)(F)F)c1, the activity % (negative = inhibition) is reported as inactive: 9.83% [at 57.5 µM].
Cn1c(CCNC(=O)CC2CCOCC2)nc2ccccc21 was tested, and the activity % (negative = inhibition) was inactive: 9.59%.
With CCn1ccc(C(=O)N2C[C@@H]3CCCN4CCC[C@@H]([C@H]34)[C@H]2CCCC(=O)NCC2CC2)n1 the activity % (negative = inhibition) was inactive: -0.472%.
CCCc1nc(CC)n2cc[nH]c(=O)c12 was tested, and the activity % (negative = inhibition) was inactive: 1.13%.
With COCCn1c(C)nnc1-c1cc(-c2ccc(OC)c(OC)c2)ccn1 the activity % (negative = inhibition) was inactive: 22.3% [at 57.5 µM].
For COCCn1c(C)cnc1CCNS(=O)(=O)Cc1ccccc1F, the activity % (negative = inhibition) was inactive: -0.38%.
With O=C(O)CCC(=O)N1CC[C@@H]2[C@H]1C(=O)N(c1ccc(F)c(Cl)c1)C(=O)N2Cc1ccccc1 the activity % (negative = inhibition) was inactive: -0.502%.
With Cc1ccc(C2(C(=O)N3C[C@@H](CN4CCCCC4)[C@@H](CO)C3)CC2)cc1 the activity % (negative = inhibition) was inactive: 1.63%.
COC(=O)[C@@H]1Cc2nc[nH]c2CN1C1CCOCC1 was tested, and the activity % (negative = inhibition) was inactive: 25.3% [at 77.1 µM].
c1cc(-c2n[nH]c(CC3CCNC3)n2)ccn1 (centres undefined) was tested, and the activity % (negative = inhibition) was inactive: 24.7%.
For Cc1noc(C)c1S(=O)(=O)N1C[C@@H](C(=O)O)[C@H](c2ccccn2)C1, the activity % (negative = inhibition) was inactive: 11.2%.
CC(=O)Nc1ccc(C(=O)N2CCC3(CC2)CN(C)CCN3C)c(C)c1 was tested, and the activity % (negative = inhibition) was inactive: 31.2%.
In the case of COc1cccc(CCC(=O)N2CCC3(CC2)NC(=O)N(c2cccc(F)c2)N3)c1, the activity % (negative = inhibition) is reported as inactive: -0.48%.
With c1ccc(C2(c3ccccc3)CCCN(Cc3cscn3)C2)cc1 the activity % (negative = inhibition) was inactive: -5.05%.
For COc1ccc(CN2CCn3c(nnc3C3CCCNC3)C2)cc1 (centres undefined), the activity % (negative = inhibition) was inactive: 6.75% [at 57.5 µM].
For COC[C@H]1C[C@@H](NC(=O)c2c(-c3ccccc3)noc2C)[C@H](O)[C@@H]1O, the activity % (negative = inhibition) was inactive: -6.53% [at 57.5 µM].
For Nc1nccc(N2CCC3(CCC(=O)N(CC4CCCO4)C3)CC2)n1 (centres undefined), the activity % (negative = inhibition) was inactive: 0.24%.
In the case of COc1ccc(NC(=O)N2CCOC(c3ccc(Cl)cc3)C2)c(C)c1 (centres undefined), the activity % (negative = inhibition) is reported as inactive: -1.55%.
CC(C)c1ccc(CN2CC(CNC(=O)C3CCOCC3)C3(C2)CN(c2ccccc2)C3)cc1 (centres undefined) was tested, and the activity % (negative = inhibition) was inactive: -12.6%.
COc1cccc(Nc2cn(C)c(=O)n3cc(COc4ccccc4)nc23)c1 was tested, and the activity % (negative = inhibition) was inactive: 4.67% [at 57.5 µM].
In the case of C=CCNC(=O)c1cnn2cc(C)ccc12, the activity % (negative = inhibition) is reported as inactive: 7.7% [at 77.1 µM].
For CC(C)Cc1cc(C(=O)N2CCOC(C(F)(F)F)C2)n[nH]1 (centres undefined), the activity % (negative = inhibition) was inactive: -9.65%.
In the case of CCc1nc2cc(N3CCCC(C(=O)O)C3)cnc2nc1CC (centres undefined), the activity % (negative = inhibition) is reported as inactive: 3.54%.
In the case of CCc1cc(C(=O)N2CCC3(CCC(=O)N(CCc4cnc[nH]4)C3)CC2)cs1, the activity % (negative = inhibition) is reported as inactive: -0.143%.
N#Cc1cccc(C(=O)N2CCNc3cnc(Nc4cccc(F)c4)nc3C2)c1 was tested, and the activity % (negative = inhibition) was inactive: 38.6% [at 57.5 µM].
CC1(C)C[C@H](NC2CCC2)[C@@]2(CCC(=O)NCc3cccnc3)CC[C@](C)(O)C[C@@H]12 was tested, and the activity % (negative = inhibition) was inactive: -8.53% [at 57.5 µM].
CCNC(=O)[C@@H]1C[C@H](NC(C)=O)CN1C1CCN(c2ccc(C)cc2)CC1 was tested, and the activity % (negative = inhibition) was inactive: 7.81%.
In the case of COc1cccc(-c2ccc(C(=O)NCCNC(=O)Cc3ccc(F)cc3)cc2)c1, the activity % (negative = inhibition) is reported as inactive: 3.44%.
In the case of COc1ccc(C(=O)N2CCN(C(=O)N3CC4CC(C3)[C@H]3CCCC(=O)N3C4)CC2)c(OC)n1 (some centres undefined), the activity % (negative = inhibition) is reported as inactive: -5.84%.
For CCN1CCN(C(=O)c2cc(-c3ccccc3)cn2C)CC1, the activity % (negative = inhibition) was inactive: 13.2%.
In the case of COCc1cccc(-c2n[nH]c3c2CC(=O)N(CCc2ccncc2)C3)c1, the activity % (negative = inhibition) is reported as inactive: 49% [at 57.5 µM].
In the case of Cc1noc(C)c1S(=O)(=O)NCCC1CN(c2cnn(C)c(=O)c2)CCO1 (centres undefined), the activity % (negative = inhibition) is reported as inactive: 4.26%.
For CN1C(=O)CO[C@H]2CN(Cc3c[nH]c4ccccc34)C[C@H]21, the activity % (negative = inhibition) was inactive: 10.3% [at 77.1 µM].
For O=C(COc1ccccc1)N1CCC(c2n[nH]c(=O)n2Cc2ccc(F)cc2)CC1, the activity % (negative = inhibition) was inactive: 20.7%.
In the case of COCC1CN(C)CC12CCN(C(=O)c1cc3ccccc3[nH]1)CC2 (centres undefined), the activity % (negative = inhibition) is reported as inactive: 5.73%.
With COCC[C@]1(O)CCN(C(=O)CCCc2ccccc2)C[C@H]1C the activity % (negative = inhibition) was inactive: 1.01%.
For CCc1nc2c(=O)n(CC(=O)NCc3ccco3)nc(C)c2s1, the activity % (negative = inhibition) was inactive: 5.18%.
For COc1cccc(-c2ccc(CN3CCCC(N[S+](=O)([O-])c4ccc(C)cc4)C3)cc2)c1 (centres undefined), the activity % (negative = inhibition) was inactive: 15%.
For CCN(Cc1ccncc1)C(=O)CC1C(=O)NCCN1CCc1ccccc1 (centres undefined), the activity % (negative = inhibition) was inactive: 3.44%.
With O=C(COc1ccccc1)N1C[C@@H]2C[C@H](C1)c1c(NS(=O)(=O)c3ccccc3)ccc(=O)n1C2 the activity % (negative = inhibition) was inactive: 2.03%.
With COc1ccccc1OCCNC(=O)[C@]12CCCC[C@@H]1N(C)C(=O)CC2 the activity % (negative = inhibition) was inactive: -2.39%.
CC(C)N1C[C@@H](COCc2ccccc2)[C@H](c2ccccc2)[S+]1(=O)[O-] was tested, and the activity % (negative = inhibition) was inactive: 2.62%.
For COc1ccc(C2(C(=O)N3C[C@@H](CO)[C@H](c4ccccn4)C3)CC2)cc1, the activity % (negative = inhibition) was inactive: 4.47%.
COCCN(CCOC)C(=O)[C@@H](C)C1CC[C@@]2(C)CC[C@H](NC(=O)c3cncnc3)[C@@H](C)[C@@H]2[C@H]1O (some centres undefined) was tested, and the activity % (negative = inhibition) was inactive: -5.02%.
In the case of COCCn1ccc2ccc(C(=O)Nc3ccc4c(c3)C(=O)N3CCC[C@H]3C(=O)N4)cc21, the activity % (negative = inhibition) is reported as inactive: 29.2%.
CN(C)C1CCCN(C(=O)c2csc3c2CCCC3)CC1 (centres undefined) was tested, and the activity % (negative = inhibition) was inactive: -0.9%.
COc1cccc(C(=O)N[C@H]2[C@H](O)[C@H](O)C[C@@H]2c2cccnc2)c1 was tested, and the activity % (negative = inhibition) was inactive: 0.332% [at 57.5 µM].
With CN(C)CCNC(=O)c1ccc(-c2nnc3ccc(NC(=O)C4CCC4)cn23)cc1 the activity % (negative = inhibition) was inactive: 4.07%.
For CN(C(=O)Cc1ccsc1)C1CCc2nn(C)c(=O)n2CC1 (centres undefined), the activity % (negative = inhibition) was inactive: 1.4%.
For CS(=O)(=O)N1Cc2ccccc2CC2(CCCN2Cc2cccnc2)C1 (centres undefined), the activity % (negative = inhibition) was inactive: 16.8%.
Cc1cc(-c2cnc(Nc3ccc(F)cc3)c3c2CCO3)ccn1 was tested, and the activity % (negative = inhibition) was inactive: 7.71% [at 57.5 µM].
For COc1ccccc1CC(=O)NCCn1cccc1-c1nc(-c2ccccc2)no1, the activity % (negative = inhibition) was inactive: 5.16%.
For COCc1nnc2n1CCC(NC(=O)C1CC=CC1)CC2 (centres undefined), the activity % (negative = inhibition) was inactive: -1.58%.
For Cc1cnc(-c2ccncc2)n1CC1CCN(C(=O)CCCc2ccccc2)C1 (centres undefined), the activity % (negative = inhibition) was inactive: 3.07%.
In the case of COc1ccc(Cn2cc(C(C(=O)O)N(C)Cc3cccnc3)cn2)cc1 (centres undefined), the activity % (negative = inhibition) is reported as inactive: -0.42%.
In the case of Cc1cc(Cl)c2oc(C(=O)N(Cc3c(C)nn(C)c3C)C3CC3)c(C)c2c1, the activity % (negative = inhibition) is reported as inactive: 11.2%.
With O=C(NCc1ccc(Cl)cc1)c1ccc2ccnn2c1 the activity % (negative = inhibition) was inactive: 8.25% [at 57.5 µM].
With Nc1ncccc1CN1C[C@H]2CN(C(=O)C3CCC3)C[C@@]2(C(=O)O)C1 the activity % (negative = inhibition) was inactive: 9.33%.
COC(=O)[C@H](Cc1ccc(OC)cc1)NC(=O)[C@H]1CN(S(=O)(=O)c2ccccc2)CCN1S(=O)(=O)c1ccccc1 was tested, and the activity % (negative = inhibition) was inactive: -0.794%.
NC(=O)c1cccc(NC(=O)c2cccc(CN3CCNC(=O)C3)c2)c1 was tested, and the activity % (negative = inhibition) was inactive: 27.1%.
FC(F)(F)c1ccc(CN2CC(N3CCc4ccccc43)C2)cc1 was tested, and the activity % (negative = inhibition) was inactive: 28.1%.
OC[C@@H]1O[C@H](CNCc2ccc(F)cc2)[C@H](N2CCOCC2)[C@@H]1O was tested, and the activity % (negative = inhibition) was inactive: 92.1% [at 57.5 µM].
O=C(C1CCCN1[S+](=O)([O-])c1cccs1)N1CCC(N2CCOCC2=O)CC1 (centres undefined) was tested, and the activity % (negative = inhibition) was inactive: 0.988%.
For COc1cccc(-c2nccc3c(=O)cc(N(C)C)oc23)c1, the activity % (negative = inhibition) was inactive: 45.9% [at 77.1 µM].
For C=CCCC(CN1CCCOCC1)Oc1cc(C#N)ccn1 (centres undefined), the activity % (negative = inhibition) was inactive: 3.12%.
In the case of CC(C)(C(=O)O)C1CCOCC1, the activity % (negative = inhibition) is reported as inactive: 0%.
For CCn1nccc1C(=O)N1CCC([C@H]2[C@@H](OC)CN2C(C)C)CC1, the activity % (negative = inhibition) was inactive: 0.0882%.
With COC1CCOC2(CCN(C(=O)c3cc(-c4ccccc4)n[nH]3)CC2)C1 (centres undefined) the activity % (negative = inhibition) was inactive: -1.12%.
In the case of O=C(Nc1ccc2c(N3CCCC3)ncnc2c1)c1cc(F)ccc1Cl, the activity % (negative = inhibition) is reported as inactive: 13%.
With COc1ccc(NC(=O)N2CCCC(Cc3noc(-c4ccncc4)n3)C2)cc1 (centres undefined) the activity % (negative = inhibition) was inactive: 18%.
In the case of N#Cc1ccccc1-c1cc2c(ccn2Cc2ccncc2)c(N2CCOCC2)n1, the activity % (negative = inhibition) is reported as inactive: 0.932% [at 57.5 µM].
COCCOCC1(CNC(=O)C2CCOCC2)C[C@@H](O)[C@@H](O)C1 (some centres undefined) was tested, and the activity % (negative = inhibition) was inactive: -2.8% [at 57.5 µM].
For CC(C)CNC1(Cc2cc(CN3CCOCC3)on2)COC1, the activity % (negative = inhibition) was inactive: -11.4% [at 57.5 µM].
In the case of CC(=O)Nc1ccc(C2(C(=O)NCc3ccc(F)cc3)CCC2)cc1, the activity % (negative = inhibition) is reported as inactive: -2.48%.
With CC(C)c1nc(CNC(=O)c2ccc(N(C)Cc3ccccn3)nc2)no1 the activity % (negative = inhibition) was inactive: 11.4%.
In the case of CN1CC[C@H]2CN(S(=O)(=O)c3ccc(NC(N)=O)cc3)C[C@H]21, the activity % (negative = inhibition) is reported as inactive: 11.1%.
For Cc1noc(C)c1-c1ccc2c(n1)CN(CCOc1ccccc1)C(=O)CO2, the activity % (negative = inhibition) was inactive: -2.06% [at 57.5 µM].
In the case of CC1CCCN1c1ccc(C(=O)N2CCC(Oc3cccnc3)CC2)cn1 (centres undefined), the activity % (negative = inhibition) is reported as inactive: 17.8%.
CCN1CCN(C(=O)C2Cn3cccc3C(=O)N2C)CC1 (centres undefined) was tested, and the activity % (negative = inhibition) was inactive: -0.664%.
With CCN1CCC2(CCC1=O)CN(Cc1nnc(-c3cccnc3)o1)CCN2C (centres undefined) the activity % (negative = inhibition) was inactive: 0.354%.
For O=C(C1CCCC1)N1CCCC(C(=O)N2CCC(c3nc4ccncc4[nH]3)C2)C1 (centres undefined), the activity % (negative = inhibition) was inactive: 7.86%.
For O=S(=O)(c1ccccc1)N1CCC(F)(c2nc(Cc3ccccc3)no2)CC1, the activity % (negative = inhibition) was inactive: 4.09%.
